Patent US20090325877A1, “Combination Product of Receptor Tyrosine Kinase Inhibitor and Fatty Acid Synthase Inhibitor for Treating Cancer” (Wyeth, priority 2008, published 2009)
At least one structure is not confirmed: it was looked up by name or label, or the drawing left a doubt.

What was measured:
ERK1/2 = ERK1/2 phosphorylation and expression by Western blotting in A2780 and SKOV3 cells; format: cell-based
Experimental: (§1) Cells plated in culture media containing 5% fetal calf serum at a density of 2.6×10^5 (SKOV3) or 6×10^5 (A2780) in 60 mm dishes (Corning, Corning, N.Y.) were treated with FASN inhibitor C75, with small-molecule ErbB RTK inhibitors (RTKIs), with the MEK1/2 antagonist U0126 or with the PI3K inhibitor LY294002 for the indicated times and at various concentrations. In some experiments cells were stimulated for 5 or 10 min with 100 ng/ml EGF (Sigma) before lysis in RIPA buffer (Grunt et al., Biochem Biophys Res Commun 329:1253-1259, 2005). Proteins (20 μg/lane) were subjected to SDS-PAGE, blotted onto PVDF membranes and immunostained (see Grunt, ibid) using the following antibodies: 2 μg/ml goat anti-pEGFR(Tyr1173) (sc-12351), 1 μg/ml rabbit anti-ErbB2 (C-18) (sc-284), 1 μg/ml rabbit anti-pErbB2(Tyr1248) (sc-12352-R) (all from Santa Cruz Biotechnology Inc., Santa Cruz, Calif.), rabbit anti-EGFR 1:1,000 (2232), rabbit anti-AKT 1:1,000 (9272), rabbit anti-pAKT(Ser473) 1:1,000 (9271), rabbit anti-pAKT(Thr308) 1:1,000 (9275), rabbit anti-pERK1/2(Thr202/Tyr204) 1:1,000 (9101) (all from Cell Signaling Technology), rabbit anti-ERK1/2 1:3,000 (06-182, Upstate Biotechnology Inc., Lake Placid, N.Y.), 0.5 μg/ml mouse monoclonal anti-FASN (610963, BD Biosciences, San Jose, Calif.), or 0.67 μg/ml goat anti-human actin (1-19, sc-1616, Santa Cruz Biotechnology). […]

AKT = AKT phosphorylation and expression by Western blotting in A2780 and SKOV3 cells; format: cell-based
Experimental: as §1

FASN protein = FASN protein levels by Western blotting in SKOV3 cells; format: cell-based
Experimental: as §1

FASN mRNA = FASN mRNA levels in SKOV3 cells; format: cell-based, human
Source text: RNA was extracted from the cells using TRI-REAGENT™ (Molecular Research Center, Cincinnati, Ohio) and subjected to reverse transcription—polymerase chain reaction (“RT-PCR”) using the TITAN ONE TUBE RT-PCR KIT™ system (Hoffmann-La Roche). Primers were: EGFR: 5′-[…]-3′ (SEQ ID NO:1) (forward, E1S) 5′-[…]-3′ (SEQ ID NO:2) (reverse, E1A); ErbB-2: 5′-[…]-3′ (SEQ ID NO:3) (forward, E2S2), 5′-[…]-3′ (SEQ ID NO:4) (reverse, E2A2); GAPDH: 5′-[…]-3′ (SEQ ID NO:5) (forward, GAPDH3S), 5′-[…]-3′ (SEQ ID NO:6) (reverse, GAPDH3A). Conditions for reverse transcription and amplification of the EGFR coding sequence were: 50° C., 30 minutes; 94° C., 2 minutes; 10 cycles (94° C., 30 seconds; 64.9° C., 30 seconds; 68° C., 90 seconds); 30 cycles (94° C., 30 seconds; 64.9° C., 30 seconds; 68° C., 90 seconds +5 seconds autoextension) and 68° C., 7 minutes. […]
Quantitative RT-PCR (“qRT-PCR”) was performed in the ABI PRISM 7000™ Sequence Detector (Applied Biosystems, Foster City, Calif.) using human EGFR, ErbB2, and FASN TaqMan® Gene Expression Assay systems (Applied Biosystems; Assay IDs: Hs00193306_m1, Hs00170433_m1, Hs00188012_m1) according to the manufacturer's instructions. β-actin and GAPDH (VIC™ and FAM labeled pre-developed TaqMan® Assay reagents, Applied Biosystems) were used as endogenous controls. EGFR, ErbB2, and FASN mRNA expression were calculated as described previously (Grunt, ibid).

O=c1cc(N2CCOCC2)oc2c(-c3ccccc3)cccc12 [LY294002]
pERK1/2 levels, effect in words (ERK1/2): compensatory hyperactivation
total ERK1/2 levels, effect in words (ERK1/2): does not lower
phosphorylation of AKT (Ser473, Thr308), effect in words (AKT): blockade
total AKT protein level, effect in words (AKT; C75 at high concentrations): does not lower
FASN protein levels, effect in words (FASN protein): reduces
FASN mRNA levels, effect in words (FASN mRNA): reduces
